In the series the target is XRCC4-WT (UniProt Q13426). Description: SPR. Particulars: high concentrations only, kon and koff at least 10x slower than XLF; SPR: 20 mM HEPES pH 8, 75 mM KCl, 10% glycerol, 1 mM DTT, 1 mM EDTA (running buffer + 0.05% Tween 20); recombinant protein; label: 5'-biotin on S1 primer end; probe letters rebuilt from the primers and the genome.

Sequences of proteins named here, by UniProt entry; tags and fusion partners are left off. A change or cut given only in a name is not applied to a line headed by its entry.
UniProt Q13426: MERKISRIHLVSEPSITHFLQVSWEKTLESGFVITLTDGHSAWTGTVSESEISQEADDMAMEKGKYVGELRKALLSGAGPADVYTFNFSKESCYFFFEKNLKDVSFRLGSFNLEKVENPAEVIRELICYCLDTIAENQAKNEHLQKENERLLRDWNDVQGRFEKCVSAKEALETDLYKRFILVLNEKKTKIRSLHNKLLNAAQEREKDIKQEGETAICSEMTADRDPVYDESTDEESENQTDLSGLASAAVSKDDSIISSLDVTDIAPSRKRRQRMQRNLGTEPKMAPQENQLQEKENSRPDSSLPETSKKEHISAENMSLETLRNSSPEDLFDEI

For at least one entry, the source does not settle the construct or the ends of the probe.

For the sequence “ACTTGACTCATGATTTCTTACCTATTAGTGGTTGAACAGCATCGGACTCAGATAGTAATCCACGCTCTTTTAAAATGTCAACAAGAGAATCTCTACCATGAACAAAATGTGACTCATATCTAAACCAGTCCTTGACGAACGTGCCAAGCATATTAAGCCACTTCTCCTCATCCAACGCGTCAGTTTTTGACAGAATCGTTAGTTGATGGCGAAAGGTCGCAAAGTAAGAGCTTCTCGAGCTGCGCAAGGATAGGTCGAATTTTCTCATTTTCCGCCAGCAGTCCACTTCGATTTAATTCGTAAACAAGCAGTAGTAATTCCTGCTTTATCAAGATAATTTTTCGACTCATCAGAAATATCCGAAAGTGTTAACTTCTGCGTCATGGAAGCGATAAAACTC (double strand) [400 bp SPR DNA]”, the binding result is recorded as “binds”.

Source of the values: PMC5468090.
